Measurements as given in PubChem BioAssay AID493014 (National Center for Advancing Translational Sciences (NCATS), 2011).
Where “and” joins values, the source holds several entries; their conditions need not be identical. Identical values can stand only once. In all, about 340,000 compounds went through this assay and about 170 (0.05%) were called active. Inconclusive results, whose numbers are uncertain, are shown with a selection of clear calls. Calls follow the shape of the dose curve; as a rule, active = well fitted inhibition curve with a large enough effect in the signal ratio, with a control signal flat (not every such curve was filed as active); inconclusive = small, poorly fitted or top-dose-only effect, or effect the other way, or a change in a side signal; inactive = flat fitted curve, though single readings scatter; the % refers to the signal ratio. Potencies beside an inconclusive call are fits to weak or partial responses and may not hold up.

assay: qHTS Assay to Find Inhibitors of Chronic Active B-Cell Receptor Signaling; details: ABC-DLBCL IkBa-CBG/CBR reporter, luminescence ratio (green luciferase fused to IkBa over red control in TMD8 lymphoma cells), 4 h; activity change, negative = inhibition: at 46.1 µM (top of the series);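 as to activity change, negative = inhibition: plate controls were basal doxycycline-induced cells for no effect and cells given 10 µM MG132 for full effect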
How it was run: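 TMD8 human ABC-DLBCL cells with doxycycline-inducible IκBα–green luciferase fusion and unfused red luciferase, in 0.5% FBS medium; compounds up to 46 uM, 4 h at 37C. Green/red luminescence ratio, filter-overlap corrected, fitted to concentration-response curves.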
Potency is read from the fitted curve at half-maximal effect.

SMILES | activity change, negative = inhibition | Potency
Cc1ccc(S(=O)(=O)N2CCCCC2)cc1C(=O)OC(C)C(=O)NCC1CCCCC1 (centres undefined) | inactive: 1.48% | –
C=CCNc1sc(C(=O)C2CC2)c(N)c1C#N | inconclusive: 4.04% | –
O=C(Nc1nnc(-c2ccco2)o1)c1cccc(Cl)c1 | – | inconclusive: 17.8 µM [falling, partial curve]
O=C(CCC(=O)c1ccc(F)cc1)Nc1cccc(S(=O)(=O)Nc2cccc(Cl)c2)c1 | – | inconclusive: 20.6 µM [falling, partial curve, poor fit]
CCOc1ccc(N2C(=O)S/C(=C\c3ccc(O)c(OC)c3)C2=O)cc1 | inconclusive: 6.4% | –
CCOC(=O)C1CCN(C(=O)c2ccc(NS(=O)(=O)c3ccc(F)cc3C)cc2)CC1 | inactive: -1.73% | –
Cc1nnc(OCc2nc3ccccc3n2C)c2ccccc12 | – | inconclusive: 10.3 µM [falling, partial curve]
COc1ccc(Nc2ncnc3sc(C)cc23)cc1 | inconclusive: -0.494% | –
CCc1ccc(NC(=S)N(CCOC)C2CCN(C(C)=O)CC2)cc1 | – | inconclusive: 20 µM [falling, partial curve, poor fit]
COc1ccc2[nH]c3c(c2c1)CCN1C(=O)C(CC(=O)NCCN2CCOCC2)C[C@H](C(=O)N2CCCCC2)[C@@]31C (some centres undefined) | inactive: -1.17% | –
COc1cc(/C=N/Nc2nc(=O)[nH]nc2C)ccc1O | inactive: -13.5% | –
COc1cc(O)c(C(CCN2CCCCC2)c2ccc3c(c2)OCO3)c(OC)c1 (centres undefined) | inactive: -13.1% | –
COc1cccc(CN(C(=O)/C=C/c2ccc(Cl)cc2)C2CCS(=O)(=O)C2)c1 (centres undefined) | inconclusive: 8.26% | –
COc1ccc(NC(=O)c2ccccc2)c([N+](=O)[O-])c1 | inactive: -18% | –
COc1ccc2c(-c3ccccc3)cc(=O)[nH]c2c1 | inconclusive: 16.6% | –
Nc1nc(CSc2ccccc2)nc(N2CCCCC2)n1 | inconclusive: 0.658% | –
CN(CC(=O)Nc1cccc(S(=O)(=O)NC2=NCCC2)c1)Cc1cccc(F)c1 | inactive: -1.29% | –
O=C(NCC(c1cccnc1)N1CCN(c2ccc(F)cc2)CC1)OCc1ccccc1 (centres undefined) | inactive: 8.61% | –
O=C(CSc1nnc2ccc(-c3ccncc3)nn12)Nc1ccc(F)cc1 | inconclusive: -4.97% | –
COc1ccc(Br)cc1C(C[N+](=O)[O-])c1c(N)n(C)c(=O)n(C)c1=O (centres undefined) | – | inconclusive: 4.47 µM [falling, full curve, poor fit]

SMILES | activity change, negative = inhibition | Potency
CCCCC(=O)N1CCN(c2nc3ccc(Cl)cc3s2)CC1 | inactive: 9.58% | –
Cc1ccc(Nc2cc(C(=O)NCCCN3CCOCC3)c3ccccc3n2)c(C)c1 | inconclusive: 17.9% | –
O=C(Nc1cccnc1)c1ccc2ccccc2c1O | – | inconclusive: 31.6 µM [falling, partial curve]
CCOC(=O)c1ccc(NC(=O)NCc2ccccn2)cc1 | inactive: 0.167% | –
Clc1ccccc1-c1ccc2ncnc(NCc3cccs3)c2c1 | inconclusive: -10.6% and inconclusive: 25.8% | –
CC(C)CCOCC(O)CCC(=O)NNC(=S)Nc1ccccc1 (centres undefined) | inactive: 11.5% | –
Oc1cccc2ccc(/C=C/c3cccs3)nc12 | – | inconclusive: 29.1 µM [cytotoxic, single point]
C=CCNC(=S)NNC(=O)COc1c(Cl)cc(Cl)cc1Cl | – | inconclusive: 29.1 µM [cytotoxic, single point]
COC(=O)[C@H](C)NC(=O)NCc1ccc(S(N)(=O)=O)cc1 | inactive: -1.91% | –
O=C(CCCCCN1C(=O)[C@@H]2Cc3ccccc3CN2C1=O)N[C@@H](Cc1ccc(O)cc1)C(=O)O | – | inconclusive: 3.98 µM [rising, full curve, poor fit]
COc1ccc(/C(C)=N\Nc2nc(-c3ccccc3)cc(=O)[nH]2)cc1 | inconclusive: -4.4% | –
C/C(=N/NC(=O)c1ccccn1)c1ccco1 | – | inconclusive: 35.5 µM [falling, single point]
CC(=O)c1c(C)oc2ccc(N(C(C)=O)S(=O)(=O)c3ccc(Cl)c([N+](=O)[O-])c3)cc12 | inconclusive: -0.358% | –
CCOC(=O)c1cnc2ccccc2c1NCCc1ccc(OC)c(OC)c1 | inconclusive: 9.36% | –
COc1ccc(NS(=O)(=O)c2cccc(C(=O)NNC(=O)CNC(=O)c3cccc(C)c3)c2)cc1 | inconclusive: -0.0136% | –
C[C@H](CO)N1C[C@H](C)[C@@H](CN(C)S(C)(=O)=O)Oc2ccc(NC(=O)C3CCCCC3)cc2C1=O | inconclusive: 2.45% | –
O=C(CSc1n[nH]c(-c2ccncc2)n1)Nc1ccccc1C(F)(F)F | inconclusive: -5.72% | –
O=C(OCCN=C1NS(=O)(=O)c2ccccc21)c1ccncc1 | inconclusive: 11.4% | –
CCOc1ccccc1N(CC(=O)Nc1ccccc1C(=O)NCc1ccco1)S(C)(=O)=O | inconclusive: -1.6% | –
